Measurements published in PMC8754649.

By UniProt entry, the sequences of proteins in these tests, tags left out. Residues count along the entry.
UniProt Q15233, 146-312, stated change not applied: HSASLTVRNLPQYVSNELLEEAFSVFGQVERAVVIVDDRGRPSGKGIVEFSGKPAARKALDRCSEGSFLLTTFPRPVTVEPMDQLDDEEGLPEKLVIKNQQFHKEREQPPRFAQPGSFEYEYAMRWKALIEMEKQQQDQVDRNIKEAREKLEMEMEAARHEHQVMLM

Biological target: NONOΔRRM1 (human) (UniProt Q15233)
Assay: MST
Details: 1 mg/ml heparin; 5' nucleotide is dT, remainder ribo; MST: 20 mM Tris-Cl pH 7.5, 250 mM KCl, 50 mM L-proline, 0.5 mM EDTA, 0.05% Tween 20, 1 mg/ml heparin; oligo 100 nM (polyG 500 nM); 15 min on ice; recombinant protein; residues 146-312; protein details: N-terminal His6, removed by TEV; label: 5'-6-FAM

TUUUUUUUUU [polyU (dTUUUUUUUUU)]
binding result: no binding

A negative result means that nothing was seen under these conditions. At least one verdict rests on a figure or table, not on a statement of the authors.
